Like-named read-outs stand apart in the source and are kept apart here. These are yes or no findings as the source states them, for the method shown. Binding seen in cells or lysates may run through a third protein. Here binding means that the protein was enriched with, or labelled near, the bait; the list need not be complete. For some assays here: A no says only that the protein was not detected with the bait.
How the values were obtained:
Flag-Rab10 (Raw264.7) [1] = molecular target: Flag-Rab10 (Raw264.7) (UniProt P61026); test: affinity purification with mass spectrometry
Flag-Rab10 (Raw264.7) [2] = molecular target: Flag-Rab10 (Raw264.7) (UniProt P61026); test: affinity purification with mass spectrometry; remark: listed apart in the source

The chains behind the UniProt entries cited, without tags or fusion partners.
UniProt P61026: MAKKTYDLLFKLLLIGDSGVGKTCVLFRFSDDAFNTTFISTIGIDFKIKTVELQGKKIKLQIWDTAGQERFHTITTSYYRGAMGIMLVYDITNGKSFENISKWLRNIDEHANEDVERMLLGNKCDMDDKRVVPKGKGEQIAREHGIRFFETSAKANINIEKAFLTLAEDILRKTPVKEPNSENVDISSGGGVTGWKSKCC
UniProt Q99MS7: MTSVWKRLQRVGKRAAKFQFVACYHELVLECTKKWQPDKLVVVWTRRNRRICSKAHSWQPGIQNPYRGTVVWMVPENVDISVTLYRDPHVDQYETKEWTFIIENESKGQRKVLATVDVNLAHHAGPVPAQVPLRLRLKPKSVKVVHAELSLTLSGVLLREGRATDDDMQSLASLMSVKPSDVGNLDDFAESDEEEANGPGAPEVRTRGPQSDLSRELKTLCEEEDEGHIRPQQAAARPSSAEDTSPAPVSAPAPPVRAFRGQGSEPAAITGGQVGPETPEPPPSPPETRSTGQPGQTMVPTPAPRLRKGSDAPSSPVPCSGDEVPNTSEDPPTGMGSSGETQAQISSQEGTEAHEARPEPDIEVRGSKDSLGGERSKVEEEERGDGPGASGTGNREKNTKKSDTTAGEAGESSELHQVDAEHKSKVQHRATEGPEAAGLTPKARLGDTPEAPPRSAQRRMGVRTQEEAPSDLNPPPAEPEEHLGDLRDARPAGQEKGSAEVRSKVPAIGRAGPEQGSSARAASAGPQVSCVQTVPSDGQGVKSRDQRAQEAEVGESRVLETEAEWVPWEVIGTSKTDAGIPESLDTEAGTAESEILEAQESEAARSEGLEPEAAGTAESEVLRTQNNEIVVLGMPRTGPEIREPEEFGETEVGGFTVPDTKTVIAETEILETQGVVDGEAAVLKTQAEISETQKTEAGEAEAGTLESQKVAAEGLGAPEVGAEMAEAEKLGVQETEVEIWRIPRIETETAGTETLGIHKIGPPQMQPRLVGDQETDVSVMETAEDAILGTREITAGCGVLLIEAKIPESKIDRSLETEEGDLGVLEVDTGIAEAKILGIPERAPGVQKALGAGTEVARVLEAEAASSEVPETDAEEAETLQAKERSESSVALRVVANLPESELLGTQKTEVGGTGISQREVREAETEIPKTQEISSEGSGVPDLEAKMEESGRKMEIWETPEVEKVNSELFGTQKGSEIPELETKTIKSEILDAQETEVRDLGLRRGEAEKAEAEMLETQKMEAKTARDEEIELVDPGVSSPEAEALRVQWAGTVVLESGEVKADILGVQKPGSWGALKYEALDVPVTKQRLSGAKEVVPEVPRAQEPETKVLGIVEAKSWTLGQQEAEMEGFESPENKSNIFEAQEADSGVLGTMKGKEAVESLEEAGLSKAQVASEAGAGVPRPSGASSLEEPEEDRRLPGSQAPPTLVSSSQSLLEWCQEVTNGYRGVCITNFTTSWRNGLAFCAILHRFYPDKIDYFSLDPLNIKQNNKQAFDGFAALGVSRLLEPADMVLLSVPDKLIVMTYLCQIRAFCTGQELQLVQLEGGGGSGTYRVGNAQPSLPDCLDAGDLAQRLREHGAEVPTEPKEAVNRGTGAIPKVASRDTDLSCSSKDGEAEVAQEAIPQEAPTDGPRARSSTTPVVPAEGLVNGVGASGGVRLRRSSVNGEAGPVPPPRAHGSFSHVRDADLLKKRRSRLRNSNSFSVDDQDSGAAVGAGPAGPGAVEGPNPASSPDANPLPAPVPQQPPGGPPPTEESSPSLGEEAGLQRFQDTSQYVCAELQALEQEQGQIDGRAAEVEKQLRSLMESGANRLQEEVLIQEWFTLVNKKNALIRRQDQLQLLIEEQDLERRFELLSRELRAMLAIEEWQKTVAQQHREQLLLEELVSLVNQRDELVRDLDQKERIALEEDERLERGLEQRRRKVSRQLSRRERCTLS

EH domain-binding protein 1-like protein 1 (from UniProt Q99MS7 1-1716)
binding (Flag-Rab10 (Raw264.7) [1]): no binding (only with 2 mM GDP)
binding (Flag-Rab10 (Raw264.7) [2]): binds

From doi:10.1101/2020.01.30.926840
